From the supplement of paper PMC12819154, “High-throughput peptide-centric local stability assay extends protein–ligand identification to membrane proteins, tissues and bacteria” (Nature Structural & Molecular Biology, 2025)
This is one part of the list. Most entries show no effect beyond the scatter of the controls.

The chains behind the UniProt entries cited, without tags or fusion partners. Where a name states a change or a piece, a line headed by the entry shows the natural chain unless it says otherwise.
UniProt Q7TNE3: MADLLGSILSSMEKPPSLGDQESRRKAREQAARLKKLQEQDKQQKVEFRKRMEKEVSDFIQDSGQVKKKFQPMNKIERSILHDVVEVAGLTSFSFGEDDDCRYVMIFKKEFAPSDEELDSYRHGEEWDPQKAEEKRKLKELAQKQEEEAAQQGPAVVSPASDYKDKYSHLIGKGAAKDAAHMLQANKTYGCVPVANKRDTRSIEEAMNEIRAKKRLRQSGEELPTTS
UniProt Q7TS68: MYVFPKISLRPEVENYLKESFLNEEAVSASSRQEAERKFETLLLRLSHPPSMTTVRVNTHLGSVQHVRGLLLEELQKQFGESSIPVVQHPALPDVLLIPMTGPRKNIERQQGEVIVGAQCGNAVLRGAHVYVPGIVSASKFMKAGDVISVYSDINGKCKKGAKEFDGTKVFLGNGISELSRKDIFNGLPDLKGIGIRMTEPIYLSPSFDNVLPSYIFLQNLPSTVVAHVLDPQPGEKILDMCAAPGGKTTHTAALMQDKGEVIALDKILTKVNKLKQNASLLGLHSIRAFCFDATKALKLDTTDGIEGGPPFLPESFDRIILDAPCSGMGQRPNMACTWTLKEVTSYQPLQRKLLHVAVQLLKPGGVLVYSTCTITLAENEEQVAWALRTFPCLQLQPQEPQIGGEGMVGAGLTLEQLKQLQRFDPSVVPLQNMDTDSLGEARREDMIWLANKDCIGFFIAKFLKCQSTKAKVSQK
UniProt Q70FJ1, whole entry: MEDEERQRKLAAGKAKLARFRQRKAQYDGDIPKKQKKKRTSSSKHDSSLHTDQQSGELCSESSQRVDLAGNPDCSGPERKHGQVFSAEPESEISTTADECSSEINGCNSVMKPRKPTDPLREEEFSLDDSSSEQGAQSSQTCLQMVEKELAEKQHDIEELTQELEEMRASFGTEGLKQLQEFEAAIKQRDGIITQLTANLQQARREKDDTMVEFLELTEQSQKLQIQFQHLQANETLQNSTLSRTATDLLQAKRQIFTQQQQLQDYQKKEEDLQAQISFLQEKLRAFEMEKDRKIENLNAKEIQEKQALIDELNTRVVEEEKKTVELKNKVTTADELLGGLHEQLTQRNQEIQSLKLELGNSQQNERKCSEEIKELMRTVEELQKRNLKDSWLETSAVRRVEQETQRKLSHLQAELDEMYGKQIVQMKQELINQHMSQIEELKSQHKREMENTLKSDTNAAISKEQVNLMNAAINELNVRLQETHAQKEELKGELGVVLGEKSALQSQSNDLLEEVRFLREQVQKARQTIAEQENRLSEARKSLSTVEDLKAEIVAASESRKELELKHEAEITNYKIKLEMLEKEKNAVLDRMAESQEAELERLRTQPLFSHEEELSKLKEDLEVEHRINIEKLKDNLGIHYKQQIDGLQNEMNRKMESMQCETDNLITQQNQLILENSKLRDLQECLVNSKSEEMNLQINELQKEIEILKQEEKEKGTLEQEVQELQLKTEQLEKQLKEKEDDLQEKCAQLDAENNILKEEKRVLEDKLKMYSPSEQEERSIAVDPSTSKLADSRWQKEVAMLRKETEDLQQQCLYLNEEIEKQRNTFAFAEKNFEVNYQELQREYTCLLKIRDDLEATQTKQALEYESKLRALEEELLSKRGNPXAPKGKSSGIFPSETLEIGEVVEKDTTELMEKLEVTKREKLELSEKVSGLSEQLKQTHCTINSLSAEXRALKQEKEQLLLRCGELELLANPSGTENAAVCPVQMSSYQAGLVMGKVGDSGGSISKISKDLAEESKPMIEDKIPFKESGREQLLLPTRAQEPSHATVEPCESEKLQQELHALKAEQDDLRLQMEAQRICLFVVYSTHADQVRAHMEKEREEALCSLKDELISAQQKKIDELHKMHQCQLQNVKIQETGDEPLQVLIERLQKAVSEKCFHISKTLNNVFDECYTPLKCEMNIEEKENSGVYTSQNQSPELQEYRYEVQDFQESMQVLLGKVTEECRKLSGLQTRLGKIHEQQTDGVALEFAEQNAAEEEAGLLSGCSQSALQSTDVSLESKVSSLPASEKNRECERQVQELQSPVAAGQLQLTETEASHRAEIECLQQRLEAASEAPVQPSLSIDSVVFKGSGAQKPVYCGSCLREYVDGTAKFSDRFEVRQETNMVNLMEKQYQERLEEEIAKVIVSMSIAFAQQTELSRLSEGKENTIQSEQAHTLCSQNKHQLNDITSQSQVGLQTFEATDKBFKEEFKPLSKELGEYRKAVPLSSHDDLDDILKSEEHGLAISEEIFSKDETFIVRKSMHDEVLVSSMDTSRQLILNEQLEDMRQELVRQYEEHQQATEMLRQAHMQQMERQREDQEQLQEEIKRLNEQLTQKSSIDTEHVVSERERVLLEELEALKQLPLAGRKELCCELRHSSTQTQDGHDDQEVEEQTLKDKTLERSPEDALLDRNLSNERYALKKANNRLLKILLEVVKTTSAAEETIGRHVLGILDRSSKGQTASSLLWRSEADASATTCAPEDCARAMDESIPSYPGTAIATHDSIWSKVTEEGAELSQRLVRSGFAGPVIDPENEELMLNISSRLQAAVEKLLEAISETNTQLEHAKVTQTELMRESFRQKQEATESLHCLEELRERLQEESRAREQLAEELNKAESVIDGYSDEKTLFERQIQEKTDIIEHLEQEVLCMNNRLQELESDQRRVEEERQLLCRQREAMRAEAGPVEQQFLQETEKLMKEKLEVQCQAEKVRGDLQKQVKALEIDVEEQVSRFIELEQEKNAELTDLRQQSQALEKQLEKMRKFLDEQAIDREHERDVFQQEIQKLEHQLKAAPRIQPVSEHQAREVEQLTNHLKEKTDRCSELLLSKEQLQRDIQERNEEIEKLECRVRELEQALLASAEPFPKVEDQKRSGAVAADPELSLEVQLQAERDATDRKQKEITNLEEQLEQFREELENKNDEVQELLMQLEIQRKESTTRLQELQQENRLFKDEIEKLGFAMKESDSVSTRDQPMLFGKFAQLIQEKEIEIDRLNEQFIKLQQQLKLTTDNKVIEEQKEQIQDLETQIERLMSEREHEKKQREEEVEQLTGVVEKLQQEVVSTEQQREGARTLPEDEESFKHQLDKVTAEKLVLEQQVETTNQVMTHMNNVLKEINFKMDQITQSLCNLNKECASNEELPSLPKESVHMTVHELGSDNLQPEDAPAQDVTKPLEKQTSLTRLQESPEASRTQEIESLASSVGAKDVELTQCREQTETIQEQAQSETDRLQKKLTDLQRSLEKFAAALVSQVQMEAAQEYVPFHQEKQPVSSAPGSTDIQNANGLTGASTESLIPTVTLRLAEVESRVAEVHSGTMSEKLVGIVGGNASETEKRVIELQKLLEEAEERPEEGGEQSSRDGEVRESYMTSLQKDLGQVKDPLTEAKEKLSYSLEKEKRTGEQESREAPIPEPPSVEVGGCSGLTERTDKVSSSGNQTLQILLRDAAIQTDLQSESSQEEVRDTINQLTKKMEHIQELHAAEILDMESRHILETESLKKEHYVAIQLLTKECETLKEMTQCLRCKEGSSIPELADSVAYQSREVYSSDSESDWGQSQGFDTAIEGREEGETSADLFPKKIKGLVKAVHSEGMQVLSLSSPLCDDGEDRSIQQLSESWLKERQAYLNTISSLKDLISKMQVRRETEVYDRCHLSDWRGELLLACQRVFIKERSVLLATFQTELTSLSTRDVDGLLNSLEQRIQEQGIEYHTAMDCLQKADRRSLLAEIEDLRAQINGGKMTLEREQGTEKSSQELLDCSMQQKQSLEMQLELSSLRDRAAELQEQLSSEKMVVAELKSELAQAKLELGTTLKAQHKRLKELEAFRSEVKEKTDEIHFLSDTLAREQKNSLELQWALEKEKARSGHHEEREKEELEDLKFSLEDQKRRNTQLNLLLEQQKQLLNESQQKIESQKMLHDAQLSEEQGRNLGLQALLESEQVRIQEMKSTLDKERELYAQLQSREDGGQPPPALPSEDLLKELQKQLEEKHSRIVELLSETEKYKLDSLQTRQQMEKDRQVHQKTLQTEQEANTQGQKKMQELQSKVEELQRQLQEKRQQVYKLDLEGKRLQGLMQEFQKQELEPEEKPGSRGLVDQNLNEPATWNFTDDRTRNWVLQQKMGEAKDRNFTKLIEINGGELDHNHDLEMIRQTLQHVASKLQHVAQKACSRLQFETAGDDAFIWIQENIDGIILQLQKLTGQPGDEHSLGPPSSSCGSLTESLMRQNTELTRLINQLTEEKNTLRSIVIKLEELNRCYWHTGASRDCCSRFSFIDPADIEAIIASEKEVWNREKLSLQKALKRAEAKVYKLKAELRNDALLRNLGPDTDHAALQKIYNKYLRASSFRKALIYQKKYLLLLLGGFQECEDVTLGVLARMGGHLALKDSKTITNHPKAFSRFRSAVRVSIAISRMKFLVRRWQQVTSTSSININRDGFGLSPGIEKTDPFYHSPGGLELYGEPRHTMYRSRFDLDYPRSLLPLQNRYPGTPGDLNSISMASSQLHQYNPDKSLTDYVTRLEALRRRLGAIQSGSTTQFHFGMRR
UniProt Q80U95: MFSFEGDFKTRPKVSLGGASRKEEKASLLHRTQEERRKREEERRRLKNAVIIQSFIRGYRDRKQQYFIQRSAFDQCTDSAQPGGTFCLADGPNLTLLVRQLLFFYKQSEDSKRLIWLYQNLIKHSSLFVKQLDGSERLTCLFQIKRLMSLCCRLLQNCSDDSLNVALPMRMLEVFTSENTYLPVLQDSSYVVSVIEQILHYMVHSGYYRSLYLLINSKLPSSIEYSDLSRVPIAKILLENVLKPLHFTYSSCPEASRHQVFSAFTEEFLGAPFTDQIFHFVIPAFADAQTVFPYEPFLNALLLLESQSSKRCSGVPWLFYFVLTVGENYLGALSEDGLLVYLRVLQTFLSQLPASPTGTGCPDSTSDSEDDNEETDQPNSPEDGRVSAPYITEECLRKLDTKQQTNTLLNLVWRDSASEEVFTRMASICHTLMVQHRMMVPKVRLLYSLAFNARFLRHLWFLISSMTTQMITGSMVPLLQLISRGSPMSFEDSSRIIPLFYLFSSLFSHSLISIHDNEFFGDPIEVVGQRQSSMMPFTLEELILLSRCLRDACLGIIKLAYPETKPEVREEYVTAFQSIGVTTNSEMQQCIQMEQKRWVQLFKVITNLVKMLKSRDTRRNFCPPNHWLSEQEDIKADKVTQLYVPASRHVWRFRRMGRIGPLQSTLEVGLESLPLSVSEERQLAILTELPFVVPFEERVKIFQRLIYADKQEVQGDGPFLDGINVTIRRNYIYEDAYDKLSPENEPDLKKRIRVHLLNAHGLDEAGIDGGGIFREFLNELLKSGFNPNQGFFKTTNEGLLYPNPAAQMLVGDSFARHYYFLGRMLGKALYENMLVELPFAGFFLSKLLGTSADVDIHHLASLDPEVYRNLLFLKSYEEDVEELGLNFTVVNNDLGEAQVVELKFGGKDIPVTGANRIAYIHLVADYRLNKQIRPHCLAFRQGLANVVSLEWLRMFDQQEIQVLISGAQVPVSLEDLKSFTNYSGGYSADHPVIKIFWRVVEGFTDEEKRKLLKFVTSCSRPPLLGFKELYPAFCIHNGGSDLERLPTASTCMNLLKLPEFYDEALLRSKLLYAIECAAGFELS
UniProt Q80TY0: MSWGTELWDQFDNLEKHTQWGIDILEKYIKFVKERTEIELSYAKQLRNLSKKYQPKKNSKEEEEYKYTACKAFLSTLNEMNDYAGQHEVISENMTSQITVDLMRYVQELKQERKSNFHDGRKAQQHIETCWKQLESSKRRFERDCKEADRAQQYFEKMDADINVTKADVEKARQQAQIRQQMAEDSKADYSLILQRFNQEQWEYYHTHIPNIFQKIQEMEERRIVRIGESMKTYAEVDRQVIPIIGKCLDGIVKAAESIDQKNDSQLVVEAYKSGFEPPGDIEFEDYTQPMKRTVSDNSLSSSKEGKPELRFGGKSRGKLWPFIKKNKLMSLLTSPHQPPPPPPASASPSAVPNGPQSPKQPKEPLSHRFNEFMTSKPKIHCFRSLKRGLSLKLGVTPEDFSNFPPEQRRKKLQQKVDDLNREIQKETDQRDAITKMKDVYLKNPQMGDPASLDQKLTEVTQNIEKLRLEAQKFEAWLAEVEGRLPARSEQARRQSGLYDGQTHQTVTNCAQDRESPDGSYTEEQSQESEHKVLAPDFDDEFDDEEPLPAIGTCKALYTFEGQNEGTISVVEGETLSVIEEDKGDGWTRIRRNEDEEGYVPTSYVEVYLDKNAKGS

These targets were tested with CN[C@@H]1C[C@H]2O[C@@](C)([C@@H]1OC)n1c3ccccc3c3c4c(c5c6ccccc6n2c5c31)C(=O)NC4 [staurosporine] (assay: log2 fold change of tryptic peptide abundance, ligand vs vehicle (limited proteolysis) (log2 ratio); higher = more trypsin-susceptible (destabilized)). Settings: ligand concentration: 20 uM; sample: mouse liver crude lysate; replicate design: treated separately.

| Target | log2 fold change |
| --- | --- |
| UniProt Q7TNE3 (peptide sequence: LRQSGEELPTTS, peptide start residue: 216) | 0.126 |
| UniProt Q6ZPI0 (peptide sequence: FHCDLVK, peptide start residue: 665) | 0.329 |
| UniProt Q7TPH6 (peptide sequence: EHMVGIIFSR, peptide start residue: 4021) | 0.765 |
| UniProt Q80TA9 (peptide sequence: IQHEFQETVALWTQAK, peptide start residue: 1448) | -0.567 |
| UniProt Q7TS68 (peptide sequence: VFLGNGISELSR, peptide start residue: 170) | 0.308 |
| UniProt Q70FJ1 (peptide sequence: NLGPDTDHAALQK, peptide start residue: 3578) | -0.816 |
| UniProt Q80U95 (peptide sequence: DACLGIIK, peptide start residue: 551) | -0.268 |
| UniProt Q6ZQ88 (peptide sequence: NYPATVHGALLSGLR, peptide start residue: 807) | -0.0371 |
| UniProt Q78JE5 (peptide sequence: TVEAAMQR, peptide start residue: 300) | 0.416 |
| UniProt Q80SU7 (peptide sequence: SQIMNSLLSK, peptide start residue: 1072) | 0.365 |
| UniProt Q80TY0 (peptide sequence: LWPFIKK, peptide start residue: 320) | -0.216 |

Copied from the list:
For log2 fold change, UniProt Q7TS68 (peptide sequence: VFLGNGISELSR, peptide start residue: 170) shows 0.308
For log2 fold change, UniProt Q7TNE3 (peptide sequence: LRQSGEELPTTS, peptide start residue: 216) shows 0.126
